Measured values: patent US8715706B2, “Methods and devices for delivery of pharmaceutical agents within orifices of the body” (RDD Pharma, Ltd., priority 2009, dated 2014)
At least one structure is not confirmed: it was looked up by name or label, or the drawing left a doubt.

Tested on: anal sphincter
Test: Rectal manometry of resting anal pressure after Nifedipine from localized drug release system
Type: in vivo, human
Conditions: 4, 12, 24 mg
Method: Six healthy individuals were selected for measuring resting anal pressure as a function of different doses of Nifedipine administered using a localized drug release system as per an embodiment of the present invention.
All dimensions are when empty before filling with API. When tested in a water bath, substantially all the API exited the shell within 40 minutes.
The measurements were conducted using 4 mg, 12 mg or 24 mg of Nifedipine as API, respectively. A Nifedipine (API) solution was prepared at 45 degrees Celsius in a heated water bath. A 22 gauge dispensing needle (Techon Systems) was inserted through the tail and into the coated shell of the drug release system. While the shell was evacuated of air, one milliliter of Nifedipine compound was delivered to the shell via a syringe attached to the needle. A clip was used to seal the tail and the system was left until the Nifedipine became solid.
A rectal manometry was used to measure resting anal pressure at baseline (before insertion) and 90 minutes after insertion of each shell with the relevant amount of API in a volume of one milliliter. The time of release of the API (API release time) ranged between 20-25 minutes (the variation due to changes in the normal human body temperature). FIGS. 12A and 12C graphically display the results of this study.

For COC(=O)C1=C(C)NC(C)=C(C(=O)OC)C1c1ccccc1[N+](=O)[O-] [Nifedipine], the “change in resting anal pressure with dose” value was “dose dependent decrease in resting anal pressure”.
